Results deposited as PubChem BioAssay AID1224829 (NIAID, 2016)
Here is a random part of about 3,800 deposited reagents. 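Calls cover raised and lowered translocation; gene median uses one vendor's three siRNAs; qiagen siRNAs acted more weakly than ambion siRNAs.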 The numbers tell different reagents against one gene apart. Further read-outs or replicates are left out here. Reagent sequences are not shown.

Assay: 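Secondary check of hits that alter LPS-induced p65 translocation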 (follow-up of hits)
Cell system: mouse RAW264.7 G9 macrophage reporter cells
Reagents: single siRNA against mouse genes, 100 nM
Timing: 2 days of siRNA knock-down, then 40 min of LPS before fixing
Challenge: LPS (Salmonella minnesota R595) at 10 ng/ml
Detection: 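Imaging of GFP-p65 after 40 min of LPS; nuclear over perinuclear ring intensity ratio, scaled to plate median and non-targeting control wells, given as z-score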
Direction: p65 translocation z-score: higher = more nuclear NF-kappaB p65 after LPS
Call rule: 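An siRNA is called active when the mean z-score of its two replicates is above 2 or below -2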
Calls: active = changed p65 translocation (either direction); inactive = no clear change

With Eif3b (GeneID 27979) #1, siRNA vendor or control pool ambion single siRNA, what does the deposit list?
p65 translocation z-score, replicate mean: -0.432; p65 translocation z-score, replicate 1: 1.09; activity call: inactive

With Eif3b (GeneID 27979) #2, siRNA vendor or control pool ambion single siRNA, what was measured?
p65 translocation z-score, replicate mean: -3.58; p65 translocation z-score, replicate 1: -3.9; activity call: active

For Eif3b (GeneID 27979) #3, siRNA vendor or control pool ambion single siRNA, what was measured?
p65 translocation z-score, replicate mean: -2.92; p65 translocation z-score, replicate 1: -2.92; activity call: active

For Eif3b (GeneID 27979) #4, siRNA vendor or control pool qiagen single siRNA, what does the deposit list?
p65 translocation z-score, replicate mean: 0.448; p65 translocation z-score, replicate 1: -0.0991; activity call: inactive

For Eif3b (GeneID 27979) #5, siRNA vendor or control pool qiagen single siRNA, what does the deposit list?
p65 translocation z-score, replicate mean: 0.592; p65 translocation z-score, replicate 1: 1.7; activity call: inactive

What did the screen give for Eif3b (GeneID 27979) #6, siRNA vendor or control pool qiagen single siRNA?
p65 translocation z-score, replicate mean: -2.17; p65 translocation z-score, replicate 1: -2.17; activity call: active

Which result is listed for Txnl4a (GeneID 27366) #1, siRNA vendor or control pool ambion single siRNA?
p65 translocation z-score, replicate mean: -0.317; p65 translocation z-score, replicate 1: 1.1; activity call: inactive

Which result is listed for Txnl4a (GeneID 27366) #2, siRNA vendor or control pool ambion single siRNA?
p65 translocation z-score, replicate mean: -0.706; p65 translocation z-score, replicate 1: 0.99; activity call: inactive

What did the screen give for Txnl4a (GeneID 27366) #3, siRNA vendor or control pool ambion single siRNA?
p65 translocation z-score, replicate mean: -3.49; p65 translocation z-score, replicate 1: -0.638; activity call: active

With Txnl4a (GeneID 27366) #4, siRNA vendor or control pool qiagen single siRNA, what was measured?
p65 translocation z-score, replicate mean: -0.596; p65 translocation z-score, replicate 1: -1.24; activity call: inactive

With Txnl4a (GeneID 27366) #5, siRNA vendor or control pool qiagen single siRNA, how do the results read?
p65 translocation z-score, replicate mean: 1.86; p65 translocation z-score, replicate 1: 1.16; activity call: inactive

For Txnl4a (GeneID 27366) #6, siRNA vendor or control pool qiagen single siRNA, how do the results read?
p65 translocation z-score, replicate mean: -0.342; p65 translocation z-score, replicate 1: -0.623; activity call: inactive

3 successive records already listed:
Eif3b (GeneID 27979) #3, siRNA vendor or control pool ambion single siRNA → p65 translocation z-score, replicate mean: -2.92; p65 translocation z-score, replicate 1: -2.92; activity call: active
Eif3b (GeneID 27979) #4, siRNA vendor or control pool qiagen single siRNA → p65 translocation z-score, replicate mean: 0.448; p65 translocation z-score, replicate 1: -0.0991; activity call: inactive
Eif3b (GeneID 27979) #5, siRNA vendor or control pool qiagen single siRNA → p65 translocation z-score, replicate mean: 0.592; p65 translocation z-score, replicate 1: 1.7; activity call: inactive

Additional records:
With Adamts7 (GeneID 108153) #1, siRNA vendor or control pool ambion single siRNA, what was measured?
p65 translocation z-score, replicate mean: 0.743; p65 translocation z-score, replicate 1: 3.13; activity call: inactive

With Adamts7 (GeneID 108153) #2, siRNA vendor or control pool ambion single siRNA, what does the deposit list?
p65 translocation z-score, replicate mean: 0.828; p65 translocation z-score, replicate 1: 1.78; activity call: inactive

What is on record for Adamts7 (GeneID 108153) #3, siRNA vendor or control pool ambion single siRNA?
p65 translocation z-score, replicate mean: -3.78; p65 translocation z-score, replicate 1: -4.43; activity call: active

What is on record for Adamts7 (GeneID 108153) #4, siRNA vendor or control pool qiagen single siRNA?
p65 translocation z-score, replicate mean: 0.0723; p65 translocation z-score, replicate 1: -0.303; activity call: inactive

Which result is listed for Adamts7 (GeneID 108153) #5, siRNA vendor or control pool qiagen single siRNA?
p65 translocation z-score, replicate mean: 0.291; p65 translocation z-score, replicate 1: -0.0963; activity call: inactive

With Adamts7 (GeneID 108153) #6, siRNA vendor or control pool qiagen single siRNA, what was measured?
p65 translocation z-score, replicate mean: -0.508; p65 translocation z-score, replicate 1: 1.19; activity call: inactive

With Psmb4 (GeneID 19172) #1, siRNA vendor or control pool ambion single siRNA, what was measured?
p65 translocation z-score, replicate mean: 1.52; p65 translocation z-score, replicate 1: 2.26; activity call: inactive

With Psmb4 (GeneID 19172) #2, siRNA vendor or control pool ambion single siRNA, how do the results read?
p65 translocation z-score, replicate mean: -1.03; p65 translocation z-score, replicate 1: -0.901; activity call: inactive

What did the screen give for Psmb4 (GeneID 19172) #3, siRNA vendor or control pool ambion single siRNA?
p65 translocation z-score, replicate mean: -3.21; p65 translocation z-score, replicate 1: -3.63; activity call: active

How did the screen score Psmb4 (GeneID 19172) #4, siRNA vendor or control pool qiagen single siRNA?
p65 translocation z-score, replicate mean: -1.8; p65 translocation z-score, replicate 1: -1.58; activity call: inactive

What did the screen give for Psmb4 (GeneID 19172) #5, siRNA vendor or control pool qiagen single siRNA?
p65 translocation z-score, replicate mean: -3.46; p65 translocation z-score, replicate 1: -1.36; activity call: active

With Psmb4 (GeneID 19172) #6, siRNA vendor or control pool qiagen single siRNA, how do the results read?
p65 translocation z-score, replicate mean: -8.48; p65 translocation z-score, replicate 1: -8.48; activity call: active

With Aprt (GeneID 11821) #1, siRNA vendor or control pool ambion single siRNA, what was measured?
p65 translocation z-score, replicate mean: 0.639; p65 translocation z-score, replicate 1: 1.43; activity call: inactive

Which result is listed for Aprt (GeneID 11821) #2, siRNA vendor or control pool ambion single siRNA?
p65 translocation z-score, replicate mean: -0.14; p65 translocation z-score, replicate 1: -0.174; activity call: inactive

With Aprt (GeneID 11821) #3, siRNA vendor or control pool ambion single siRNA, what does the deposit list?
p65 translocation z-score, replicate mean: -3.45; p65 translocation z-score, replicate 1: -3.43; activity call: active

With Aprt (GeneID 11821) #4, siRNA vendor or control pool qiagen single siRNA, what was measured?
p65 translocation z-score, replicate mean: 1.61; p65 translocation z-score, replicate 1: 0.685; activity call: inactive

For Aprt (GeneID 11821) #5, siRNA vendor or control pool qiagen single siRNA, what does the deposit list?
p65 translocation z-score, replicate mean: -0.728; p65 translocation z-score, replicate 1: -0.659; activity call: inactive

What did the screen give for Aprt (GeneID 11821) #6, siRNA vendor or control pool qiagen single siRNA?
p65 translocation z-score, replicate mean: -4.13; p65 translocation z-score, replicate 1: -3.27; activity call: active
